# Reference: publication PMC3467264
# The chains behind the UniProt entries cited, without tags or fusion partners.
# UniProt Q7TQN4, whole entry: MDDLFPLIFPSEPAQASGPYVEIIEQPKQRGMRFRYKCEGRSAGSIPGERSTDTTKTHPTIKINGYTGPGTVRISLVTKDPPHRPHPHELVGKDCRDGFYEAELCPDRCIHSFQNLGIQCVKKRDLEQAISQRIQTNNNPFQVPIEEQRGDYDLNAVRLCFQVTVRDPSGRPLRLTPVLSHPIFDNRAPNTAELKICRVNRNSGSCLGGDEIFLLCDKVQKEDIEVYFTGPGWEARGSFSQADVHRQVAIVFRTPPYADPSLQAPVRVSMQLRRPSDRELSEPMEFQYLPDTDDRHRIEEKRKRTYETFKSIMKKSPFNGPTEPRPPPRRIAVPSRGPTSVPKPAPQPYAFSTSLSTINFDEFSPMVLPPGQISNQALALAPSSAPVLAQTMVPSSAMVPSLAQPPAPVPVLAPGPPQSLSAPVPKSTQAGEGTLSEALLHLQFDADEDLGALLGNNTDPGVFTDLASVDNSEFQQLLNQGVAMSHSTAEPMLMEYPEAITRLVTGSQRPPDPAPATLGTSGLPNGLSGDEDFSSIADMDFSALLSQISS
# Assays:
# [1] = target: NF-kB p65 (RelA) (rat (832/13 INS-1-derived insulinoma cells)) (UniProt Q7TQN4); assay: EMSA with antiserum (complex impaired); settings: nuclear extract, IL-1beta-stimulated, diminished by 50x unlabeled oligo and by IkBa super-repressor; LightShift Chemiluminescent EMSA kit, 10 ug nuclear protein, 6% DNA retardation gel; pH and temperature not stated; protein in an extract; label: 5'-biotin
# [2] = test system: NF-kB p65 (RelA) + p300 coactivator; assay: EMSA with antiserum (complex impaired); settings: nuclear extract, IL-1beta-stimulated, p300 antiserum impairs the complex, p300 probably bound through NF-kB; LightShift Chemiluminescent EMSA kit, 10 ug nuclear protein, 6% DNA retardation gel; pH and temperature not stated; protein in an extract; label: 5'-biotin
sequence,measurement,setting,value
GGTCTGGGAACTTCCAATACTGCCTCAGAATGGGAATTTCCACACT (double strand) [rat CCL2 promoter NF-kB probe],binding result,[1],binds
same,binding result,[2],binds

# Construct, isoform or probe ends are uncertain for at least one entry. Where cells or extracts were used, other partners may take part. For some assays here: At least one verdict was read from the data and is not stated in words by the source.
